Laboratory results published in publication PMC7484505.
Results are given in words; binding and its absence hold for the method and conditions named. Some results given as binding are weak or reduced against the parent protein; the word gives no strength.

Chains of the proteins cited; added tags and fusions are not shown. Lines headed by an entry give the natural chain unless they say otherwise; changes in a name come on top.
UniProt Q8NER1: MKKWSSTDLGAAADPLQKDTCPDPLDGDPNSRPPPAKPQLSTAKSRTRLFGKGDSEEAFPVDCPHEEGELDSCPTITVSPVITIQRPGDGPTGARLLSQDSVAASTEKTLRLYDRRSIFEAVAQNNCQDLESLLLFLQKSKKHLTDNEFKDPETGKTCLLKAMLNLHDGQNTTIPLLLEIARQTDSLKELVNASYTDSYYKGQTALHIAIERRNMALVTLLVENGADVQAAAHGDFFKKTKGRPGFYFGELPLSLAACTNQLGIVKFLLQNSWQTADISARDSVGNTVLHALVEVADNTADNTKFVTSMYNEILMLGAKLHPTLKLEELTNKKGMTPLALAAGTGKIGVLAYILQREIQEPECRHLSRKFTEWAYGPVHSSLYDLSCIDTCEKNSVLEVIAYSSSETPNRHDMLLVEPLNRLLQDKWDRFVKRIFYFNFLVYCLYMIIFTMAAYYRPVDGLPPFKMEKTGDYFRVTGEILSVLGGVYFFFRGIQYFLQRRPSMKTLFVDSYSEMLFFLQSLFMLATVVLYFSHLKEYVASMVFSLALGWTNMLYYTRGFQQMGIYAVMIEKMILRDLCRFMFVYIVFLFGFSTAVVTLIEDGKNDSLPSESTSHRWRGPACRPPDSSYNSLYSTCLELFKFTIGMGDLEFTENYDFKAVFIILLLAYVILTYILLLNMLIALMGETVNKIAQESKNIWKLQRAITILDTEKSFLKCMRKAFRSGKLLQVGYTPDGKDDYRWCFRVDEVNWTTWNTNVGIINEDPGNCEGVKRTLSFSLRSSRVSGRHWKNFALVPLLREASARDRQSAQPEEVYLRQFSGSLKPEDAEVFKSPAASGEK

Columns and labels:
[1] = target: hNav1.7^GFP (human) (UniProt Q15858); assay: condition: only after 1-h incubation with 0.1% LiDS at 37°C (partial denaturation); native gel or EMSA; hrCN-PAGE of the same digitonin extracts after partial denaturation (1-h incubation with 0.1% LiDS at 37°C); GFP fluorescence scanning
[2] = target: hTRPV1^GFP (human) (UniProt Q8NER1); assay: native gel or EMSA; hrCN-PAGE of the same digitonin extracts after partial denaturation (1-h incubation with 0.1% LiDS at 37°C); GFP fluorescence scanning

| binding [1] | binding [2] | Substance |
| --- | --- | --- |
| no binding |  | hNav1.7^GFP (from UniProt Q15858-3 1-1977) |
|  | binds | hTRPV1^GFP (from UniProt Q8NER1-1 1-839) |
